In US20140302026A1:
No constants are given. Whether binding was seen depends on the method and setting. Some entries that bind do so weakly or less than the wild type.

Amino acid sequences for entries named in this document (tags omitted). A change or cut given only in a name is not applied to a line headed by its entry. Chains listed by the source or under a name are the forms on record and can include a tag or linker. Residues count along the entry.
Human VEGF (R&D) (P15692, form named): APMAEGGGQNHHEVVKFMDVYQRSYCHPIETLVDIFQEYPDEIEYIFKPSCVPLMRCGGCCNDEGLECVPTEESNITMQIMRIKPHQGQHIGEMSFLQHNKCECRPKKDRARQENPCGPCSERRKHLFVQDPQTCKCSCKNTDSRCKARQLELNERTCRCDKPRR
UniProt P02751, residues 32-2477: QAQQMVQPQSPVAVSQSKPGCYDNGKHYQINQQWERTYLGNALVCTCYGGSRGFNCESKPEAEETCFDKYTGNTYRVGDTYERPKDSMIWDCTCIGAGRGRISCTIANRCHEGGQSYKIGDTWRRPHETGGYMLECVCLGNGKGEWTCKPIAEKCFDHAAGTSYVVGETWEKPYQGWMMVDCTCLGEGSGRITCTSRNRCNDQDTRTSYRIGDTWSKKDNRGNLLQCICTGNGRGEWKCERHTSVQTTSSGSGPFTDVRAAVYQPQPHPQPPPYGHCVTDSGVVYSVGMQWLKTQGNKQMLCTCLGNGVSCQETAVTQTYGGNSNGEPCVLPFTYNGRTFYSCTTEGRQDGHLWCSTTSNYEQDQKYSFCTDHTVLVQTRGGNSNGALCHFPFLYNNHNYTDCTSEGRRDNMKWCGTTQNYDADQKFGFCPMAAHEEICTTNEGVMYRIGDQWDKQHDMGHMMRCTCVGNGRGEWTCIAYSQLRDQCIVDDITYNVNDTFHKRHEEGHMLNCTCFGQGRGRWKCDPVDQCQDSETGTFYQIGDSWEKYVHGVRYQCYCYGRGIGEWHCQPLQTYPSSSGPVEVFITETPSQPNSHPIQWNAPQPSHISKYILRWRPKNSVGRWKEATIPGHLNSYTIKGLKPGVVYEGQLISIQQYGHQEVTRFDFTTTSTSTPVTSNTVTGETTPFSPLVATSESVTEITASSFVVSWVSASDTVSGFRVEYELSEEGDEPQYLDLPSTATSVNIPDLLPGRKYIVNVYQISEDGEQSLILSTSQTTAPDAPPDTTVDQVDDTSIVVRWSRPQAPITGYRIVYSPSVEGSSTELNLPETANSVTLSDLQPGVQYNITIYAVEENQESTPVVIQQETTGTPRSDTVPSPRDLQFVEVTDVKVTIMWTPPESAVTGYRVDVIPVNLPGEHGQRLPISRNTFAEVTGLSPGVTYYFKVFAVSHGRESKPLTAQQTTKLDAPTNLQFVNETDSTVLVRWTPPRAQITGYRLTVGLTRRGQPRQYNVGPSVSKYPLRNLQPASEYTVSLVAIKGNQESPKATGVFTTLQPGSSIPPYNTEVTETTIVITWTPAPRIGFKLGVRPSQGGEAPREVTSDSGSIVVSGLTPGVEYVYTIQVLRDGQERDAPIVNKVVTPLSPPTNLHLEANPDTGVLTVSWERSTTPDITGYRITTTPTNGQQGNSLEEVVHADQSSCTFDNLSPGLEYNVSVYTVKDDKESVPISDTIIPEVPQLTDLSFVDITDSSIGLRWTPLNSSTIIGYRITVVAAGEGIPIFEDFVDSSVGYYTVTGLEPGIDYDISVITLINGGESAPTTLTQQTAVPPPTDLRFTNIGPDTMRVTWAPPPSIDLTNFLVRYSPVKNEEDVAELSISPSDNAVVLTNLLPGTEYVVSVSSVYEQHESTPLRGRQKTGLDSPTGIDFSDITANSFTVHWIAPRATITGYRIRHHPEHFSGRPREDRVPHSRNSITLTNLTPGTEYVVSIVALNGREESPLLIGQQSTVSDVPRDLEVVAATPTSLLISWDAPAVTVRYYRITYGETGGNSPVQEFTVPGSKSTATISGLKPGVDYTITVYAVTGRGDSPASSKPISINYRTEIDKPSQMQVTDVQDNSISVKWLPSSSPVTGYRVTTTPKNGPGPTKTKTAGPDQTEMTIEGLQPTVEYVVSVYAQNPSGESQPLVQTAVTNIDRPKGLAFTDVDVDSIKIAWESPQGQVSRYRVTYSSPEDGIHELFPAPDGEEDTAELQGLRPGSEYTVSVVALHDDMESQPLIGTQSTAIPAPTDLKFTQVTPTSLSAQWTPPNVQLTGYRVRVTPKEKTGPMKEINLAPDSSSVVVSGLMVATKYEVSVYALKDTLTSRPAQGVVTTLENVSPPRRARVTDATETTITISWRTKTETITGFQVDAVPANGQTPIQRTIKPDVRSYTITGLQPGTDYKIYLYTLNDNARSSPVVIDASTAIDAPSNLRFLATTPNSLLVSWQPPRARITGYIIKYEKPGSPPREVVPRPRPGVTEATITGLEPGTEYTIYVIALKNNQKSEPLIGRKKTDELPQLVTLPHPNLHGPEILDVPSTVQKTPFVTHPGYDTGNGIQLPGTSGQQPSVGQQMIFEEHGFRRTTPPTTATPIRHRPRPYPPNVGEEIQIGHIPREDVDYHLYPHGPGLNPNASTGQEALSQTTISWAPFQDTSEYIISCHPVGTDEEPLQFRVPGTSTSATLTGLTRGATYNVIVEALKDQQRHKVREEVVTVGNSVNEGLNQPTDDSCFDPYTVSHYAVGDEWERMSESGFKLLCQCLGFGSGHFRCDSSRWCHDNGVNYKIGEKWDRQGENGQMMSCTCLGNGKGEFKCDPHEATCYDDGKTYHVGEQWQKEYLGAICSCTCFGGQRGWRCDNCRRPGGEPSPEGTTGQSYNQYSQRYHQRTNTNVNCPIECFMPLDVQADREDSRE
human Fc-endostatin (P39060, residues 1572-1754): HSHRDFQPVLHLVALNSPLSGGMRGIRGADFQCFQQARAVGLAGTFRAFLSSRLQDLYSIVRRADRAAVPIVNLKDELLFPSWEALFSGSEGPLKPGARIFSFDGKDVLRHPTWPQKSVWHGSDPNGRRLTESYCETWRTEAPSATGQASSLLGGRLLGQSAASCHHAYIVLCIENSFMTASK
27 amino acid NH2-terminal region of the endostatin domain (peptide) (P39060, residues 1572-1598): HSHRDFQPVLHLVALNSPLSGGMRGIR

What was measured:
Human VEGF (R&D) (human) = Human VEGF (R&D) (human) (UniProt P15692); experiment: preliminary data; peptide competition with VEGF-Fc-Endostatin binding
fibronectin [1] = target: fibronectin (UniProt P02751); experiment: ELISA; proteins coated at 10 µg/ml, fibronectin as ligand
fibronectin [2] = target: fibronectin (UniProt P02751); experiment: summary of the earlier examples (ELISA, Biacore)
fibronectin [3] = target: fibronectin (UniProt P02751); experiment: SPR (Biacore T100); protein immobilised on CM4, fibronectin as analyte
fibronectin [4] = target: fibronectin (UniProt P02751); experiment: discussion of the examples
fibronectin [5] = target: fibronectin (UniProt P02751); experiment: summary of the earlier examples (IP, ELISA, Biacore)
fibronectin [6] = target: fibronectin (UniProt P02751); experiment: SPR (Biacore); data not shown

27 amino acid NH2-terminal region of the endostatin domain (peptide) (from UniProt P39060 1572-1598)
binding (Human VEGF (R&D) (human)): binds

Human VEGF (R&D) (from UniProt P15692 27-191) (ligand)
binding (fibronectin [1]): binds | binding (fibronectin [2]): binds | binding (fibronectin [3]): binds | binding (fibronectin [4]): binds

human Fc-endostatin (from UniProt P39060 1572-1754) (Fc fusion)
binding (fibronectin [5]): binds | binding (fibronectin [6]): binds | binding (fibronectin [4]): binds

human NC-1 (hNC-1) trimer of collagen 18 (from UniProt P39060 1443-1754)
binding (fibronectin [1]): binds | binding (fibronectin [3]): binds | binding (fibronectin [4]): binds
